Article PMC12077264
No constants are given. Whether binding was seen depends on the method and setting. In cells and extracts the contact can be indirect. Some results given as binding are weak or reduced against the parent protein; the word gives no strength. Sequences can lack the tags named with a protein.

T1: GST:CcmC (wild type), in GST:CcmCDE(H130A) or GST:CcmC(D:flag)E(H130A) (E. coli) (UniProt P0ABM1)
T1 sequence: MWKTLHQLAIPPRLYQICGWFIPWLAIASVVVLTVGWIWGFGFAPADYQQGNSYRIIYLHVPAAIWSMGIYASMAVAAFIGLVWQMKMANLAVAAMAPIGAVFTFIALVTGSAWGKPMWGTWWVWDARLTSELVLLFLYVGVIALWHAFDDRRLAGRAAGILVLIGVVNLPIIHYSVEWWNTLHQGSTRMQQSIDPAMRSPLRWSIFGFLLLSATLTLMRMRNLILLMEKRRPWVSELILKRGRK

B1: CcmD(G15C), in GST:CcmCDE(H130A) (protein, UniProt P0ABM5 1-69)
chain: MTPAFASWNEFFAMCGYAFFVWLAVVMTVIPLVVLVVHSVMQHRAILRGVAQQRAREARLRAAQQQEAA
B2: CcmD(Y17C), in GST:CcmCDE(H130A) (protein, UniProt P0ABM5 1-69)
chain: MTPAFASWNEFFAMGGCAFFVWLAVVMTVIPLVVLVVHSVMQHRAILRGVAQQRAREARLRAAQQQEAA
B3: CcmD(A18C), in GST:CcmCDE(H130A) (protein, UniProt P0ABM5 1-69)
chain: MTPAFASWNEFFAMGGYCFFVWLAVVMTVIPLVVLVVHSVMQHRAILRGVAQQRAREARLRAAQQQEAA
B4: CcmD(F19C), in GST:CcmCDE(H130A) (protein, UniProt P0ABM5 1-69)
chain: MTPAFASWNEFFAMGGYACFVWLAVVMTVIPLVVLVVHSVMQHRAILRGVAQQRAREARLRAAQQQEAA
B5: CcmD(Q42C), in GST:CcmCDE(H130A) (protein, UniProt P0ABM5 1-69)
chain: MTPAFASWNEFFAMGGYAFFVWLAVVMTVIPLVVLVVHSVMCHRAILRGVAQQRAREARLRAAQQQEAA
B6: CcmD(A45C), in GST:CcmCDE(H130A) (protein, UniProt P0ABM5 1-69)
chain: MTPAFASWNEFFAMGGYAFFVWLAVVMTVIPLVVLVVHSVMQHRCILRGVAQQRAREARLRAAQQQEAA
B7: CcmD(I46C), in GST:CcmCDE(H130A) (protein, UniProt P0ABM5 1-69)
chain: MTPAFASWNEFFAMGGYAFFVWLAVVMTVIPLVVLVVHSVMQHRACLRGVAQQRAREARLRAAQQQEAA
B8: CcmD:flag (wild type), in GST:CcmC(D:flag)E(H130A) (protein, UniProt P0ABM5 1-69)
chain: MTPAFASWNEFFAMGGYAFFVWLAVVMTVIPLVVLVVHSVMQHRAILRGVAQQRAREARLRAAQQQEAA
B9: CcmD(Y17C):flag, in GST:CcmC(D:flag)E(H130A) (protein, UniProt P0ABM5 1-69)
chain: MTPAFASWNEFFAMGGCAFFVWLAVVMTVIPLVVLVVHSVMQHRAILRGVAQQRAREARLRAAQQQEAA
B10: CcmD(I46C):flag, in GST:CcmC(D:flag)E(H130A) (protein, UniProt P0ABM5 1-69)
chain: MTPAFASWNEFFAMGGYAFFVWLAVVMTVIPLVVLVVHSVMQHRACLRGVAQQRAREARLRAAQQQEAA

Each binder was assayed against T1, GST:CcmC (wild type), in GST:CcmCDE(H130A) or GST:CcmC(D:flag)E(H130A) (E. coli) (assay: pull-down; GST affinity purification via the N-terminal GST tag on CcmC of co-expressed GST:CcmCDE(H130A) or GST:CcmC(D:flag)E(H130A) from E. coli; 5 ug affinity purified protein on SDS-PAGE, Coomassie stain and α-GST, α-CcmE, α-FLAG immunoblots).
In the case of B1, the binding is reported as “binds”.
B2 was tested, and the binding was “binds”.
With B3 the binding was “binds”.
With B4 the binding was “binds”.
For B5, the binding was “binds”.
B6 was tested, and the binding was “binds”.
In the case of B7, the binding is reported as “binds”.
With B8 the binding was “binds”.
With B9 the binding was “binds”.
For B10, the binding was “binds”.
